Consider 1 molecule from publication PMC4868951.

Results are given in words; binding and its absence hold for the method and conditions named. In cells and extracts the contact can be indirect. Binding can be weak; no strength is given. Sequences can lack the tags named with a protein.

In one test the target is FLAG-RagC (Drosophila). The test is described as follows: co-IP; Kc167 cells transfected with FLAG-RagA and FLAG-RagC (wild type or active-locked mutants) and tagged prey, anti-FLAG immunoprecipitation; with or without amino acids.
Another test deals with FLAG-RagA (Drosophila). Described as above.

B1: tagged eIF3-S2 (protein, UniProt O02195 1-326)
chain: MRPLMLQGHERSITQIKYNREGDLLFSCSKDQKPNVWYSLNGERLGTYDGHQGAVWCLDVDWESRKLITGAGDMTAKIWDVEYGTVIASIPTKSSVRTSNFSFSGNQAAYSTDKAMGQSCELFLIDVRNADSSLSEQEPTLRIPMTESKITSMLWGPLDETIITGHDNGNIAIWDIRKGQKVVDSGTDHSAGINDMQLSKDGTMFVTASKDTTAKLFDSESLMCLKTYKTERPVNSAAISPIMDHVVLGGGQDAMEVTTTSTKAGKFDSRFFHLIYEEEFARLKGHFGPINSLAFHPDGKSYASGGEDGFVRVQTFDSTYFENIFE
For the molecule B1, the binding result with FLAG-RagC (Drosophila) and in the test with FLAG-RagA (Drosophila) was “binds” in each case.
